PubChem BioAssay AID743454 – Peter MacCallum Cancer Centre – 2014

Assay: 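Knock-downs lowering viability or raising caspase 3/7 activity in vorinostat-treated resistant cells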 (primary screen)
Cell system: human HCT116-VR colon cancer cells, selected for vorinostat resistance
Reagent: siRNA pool against human genes, 40 nM siRNA pool
Time to read-out: vorinostat for 24 h, read-out about 72 h after transfection
Challenge: vorinostat at 2.5 µM final
Measurement: 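Cell viability by CellTiter-Fluor and caspase 3/7 activity by luminescence, each scaled to mock wells per plate, duplicates averaged, then robust z-scored over all plates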
Scale: viability robust z-score: higher = more viable cells than screen typical; caspase robust z-score: higher = more caspase 3/7 activity than screen typical
Call rule: 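a knock-down is a hit when classed RV1 or RV2 for lowered viability, or CA1 or CA2 for caspase activation; those lethal without drug were dropped; hits were retested singly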
The whole screen tested about 18,000 reagents; this is a random part of them. Of all reagents, 450 (2.5%) are marked active. 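Single biological run; no consistent viability z cut-off exists, so the class columns, not z-scores, define the calls.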 Entries without a mark were called inactive.

For TOP1 the deposit lists viability hit class no change; caspase hit class no change; viability robust z-score 0.49; caspase robust z-score -0.13.
For TECPR2, the entry reads viability hit class no change; caspase hit class no change; viability robust z-score -0.73; caspase robust z-score 3.48.
After knock-down of HEATR1, the record shows viability hit class no change; caspase hit class no change; viability robust z-score -1.11; caspase robust z-score 0.26.
ZDHHC17 gave viability hit class no change; caspase hit class no change; viability robust z-score -0.43; caspase robust z-score 0.48.
With knock-down of TAFA2, the record shows viability hit class no change; caspase hit class no change; viability robust z-score -1.12; caspase robust z-score 0.19.
Against EZHIP, the values are viability hit class no change; caspase hit class no change; viability robust z-score 0.61; caspase robust z-score 0.
FLNA scored viability hit class no change; caspase hit class no change; viability robust z-score 0.6; caspase robust z-score 3.08.
Against SLC35E4, the entry reads viability hit class no change; caspase hit class no change; viability robust z-score 0.29; caspase robust z-score 0.1.
Silencing of CHN1 came out at: viability hit class no change; caspase hit class no change; viability robust z-score -0.1; caspase robust z-score -0.94.
Depletion of ARID3A resulted in: viability hit class no change; caspase hit class no change; viability robust z-score 0.04; caspase robust z-score 0.78.

Reformatted: entries from further up
Target gene | viability hit class | caspase hit class | viability robust z-score | caspase robust z-score
EZHIP | no change | no change | 0.61 | 0
FLNA | no change | no change | 0.6 | 3.08

The listing continues.
Against PHF21B, the values are viability hit class no change; caspase hit class no change; viability robust z-score -1.08; caspase robust z-score 0.89.
After knock-down of TIGD6 the results were viability hit class no change; caspase hit class no change; viability robust z-score 0.58; caspase robust z-score -0.86.
For C10orf88, the entry reads viability hit class no change; caspase hit class no change; viability robust z-score -0.01; caspase robust z-score -0.62.
IGFN1 gave viability hit class no change; caspase hit class no change; viability robust z-score -0.66; caspase robust z-score 1.79.
For CCL23 the deposit lists viability hit class no change; caspase hit class no change; viability robust z-score 0.49; caspase robust z-score -0.12.
For PSMA2, the entry reads viability hit class no change; caspase hit class no change; viability robust z-score -3.31; caspase robust z-score 2.05.
With knock-down of DUOXA2 the results were viability hit class no change; caspase hit class no change; viability robust z-score -0.74; caspase robust z-score -0.15.
ZNHIT6 gave viability hit class no change; caspase hit class no change; viability robust z-score -1.62; caspase robust z-score -0.35.
For PKN3 the deposit lists viability hit class no change; caspase hit class no change; viability robust z-score -0.8; caspase robust z-score -1.
After knock-down of PMS2P3, the screen gave viability hit class no change; caspase hit class no change; viability robust z-score -0.8; caspase robust z-score 0.36.
ZFYVE28 scored viability hit class no change; caspase hit class no change; viability robust z-score -0.17; caspase robust z-score 0.62.
